# Some of the results follow.
# B1: PX14375A-pdi-503-28-503 (Parabacteroides distasonis) (protein)
# chain: PLGSPEAGDISEERQAFLRLTAVYSVMKDFRYTWSMQCFGDVLSNDATYSGSSNDAQTFTLLENYQYQADHTEILNKYRYSYQCINKANLFIRDMEMADDALFSKYDKEQMIGEAKFIRAYTYFELVKTFGGVPCYTGVLDLDHERLGRASVEEIYSVIEQDLNDAVSVLPKKSEVANYESSYAGRITKGAAIAMQTRIYLYEKKYDEVKKAFEKFQNECGGEYSLVAPEDYTWQFSLDGEHCSSSILEVNMYNSSTQSSYNVNNGNRHVLMSMPRNMTIGFGCAQPTQALADAYDAEGDVIRKKTTLLSTEEAIEIETAAKGDVAPVTDDRTGWYNRKLYLAPGQREENRGNNQPTNLRLIRLAEVYLNYAEACYFSGDIANAQKYLNEVRSHVNLAPKNHTGSQLFEDIMNERHLEFGMEGFRFFDVVRVGWGEKVFNGTKKAEFGAKTPFSAGAEVLPIPQTEIDISDGLITN
# Legend:
# Assay in all cases: glycan array binding signal (z-score within array); higher = stronger binding
# Conditions in all cases: glycan notation: IUPAC condensed, linker removed
# [1] = target: Gal(b1-4)GlcNAc(b1-6)GalNAc
# How it was run: (§1)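 The binding signal is a Z-score computed within each array. Data were drawn from 3228 arrays in the Consortium for Functional Glycomics database, restricted to those with a known protein sequence. Scores were averaged over arrays of the same protein sequence at different concentrations or buffers, and over linkers, and negative values can be taken as non-binding.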
# [2] = target: Gal(b1-4)GlcNAc(b1-6)[Gal(b1-3)]GalNAc
# How it was run: as §1
# [3] = target: Gal(b1-4)GlcNAc(b1-6)[Gal(b1-4)GlcNAc(b1-3)]GalNAc
# How it was run: as §1
# Gal(b1-4)GlcNAc6P = target: Gal(b1-4)GlcNAc6P
# How it was run: as §1
# Gal(b1-6)Gal = target: Gal(b1-6)Gal
# How it was run: as §1
# Gal3S(b1-3)GalNAc = target: Gal3S(b1-3)GalNAc
# How it was run: as §1
# Gal3S(b1-3)GlcNAc = target: Gal3S(b1-3)GlcNAc
# How it was run: as §1
# [4] = target: Gal3S(b1-3)[Fuc(a1-4)]GlcNAc
# How it was run: as §1
# Gal3S(b1-4)Glc = target: Gal3S(b1-4)Glc
# How it was run: as §1
# Gal3S(b1-4)Glc6S = target: Gal3S(b1-4)Glc6S
# How it was run: as §1
# Gal3S(b1-4)GlcNAc = target: Gal3S(b1-4)GlcNAc
# How it was run: as §1
# [5] = target: Gal3S(b1-4)[Fuc(a1-3)]Glc6S
# How it was run: as §1
# [6] = target: Gal3S(b1-4)[Fuc(a1-3)]GlcNAc
# How it was run: as §1
# [7] = target: Gal3S(b1-4)[Fuc(a1-3)]GlcNAc6S
# How it was run: as §1
# Gal3S4S(b1-4)GlcNAc = target: Gal3S4S(b1-4)GlcNAc
# How it was run: as §1
# Gal3S6S(b1-4)GlcNAc = target: Gal3S6S(b1-4)GlcNAc
# How it was run: as §1
# Gal3S6S(b1-4)GlcNAc6S = target: Gal3S6S(b1-4)GlcNAc6S
# How it was run: as §1
# Gal4S(b1-4)GlcNAc = target: Gal4S(b1-4)GlcNAc
# How it was run: as §1
# Gal4S6S(b1-4)GlcNAc = target: Gal4S6S(b1-4)GlcNAc
# How it was run: as §1
# Gal6P(b1-4)GlcNAc = target: Gal6P(b1-4)GlcNAc
# How it was run: as §1
# Gal6S(b1-3)GlcNAc = target: Gal6S(b1-3)GlcNAc
# How it was run: as §1
# Gal6S(b1-3)GlcNAc6S = target: Gal6S(b1-3)GlcNAc6S
# How it was run: as §1
# Gal6S(b1-4)Glc = target: Gal6S(b1-4)Glc
# How it was run: as §1
# Gal6S(b1-4)Glc6S = target: Gal6S(b1-4)Glc6S
# How it was run: as §1
# Gal6S(b1-4)GlcNAc = target: Gal6S(b1-4)GlcNAc
# How it was run: as §1
# Gal6S(b1-4)GlcNAc6S = target: Gal6S(b1-4)GlcNAc6S
# How it was run: as §1
# GalNAc(a1-3)Gal = target: GalNAc(a1-3)Gal
# How it was run: as §1
# GalNAc(a1-3)GalNAc = target: GalNAc(a1-3)GalNAc
# How it was run: as §1
# [8] = target: GalNAc(a1-3)GalNAc(b1-3)Gal(a1-4)Gal(b1-4)Glc
# How it was run: as §1
# [9] = target: GalNAc(a1-3)GalNAc(b1-3)Gal(a1-4)Gal(b1-4)GlcNAc
# How it was run: as §1
# GalNAc(b1-3)Gal = target: GalNAc(b1-3)Gal
# How it was run: as §1
# [10] = target: GalNAc(b1-3)Gal(a1-4)Gal(b1-4)GlcNAc
# How it was run: as §1
# [11] = target: GalNAc(b1-3)Gal(a1-4)Gal(b1-4)GlcNAc(b1-3)Gal(b1-4)Glc
# How it was run: as §1
# [12] = target: GalNAc(b1-3)Gal(a1-6)Gal(b1-4)Glc
# How it was run: as §1
# GalNAc(b1-3)GalNAc = target: GalNAc(b1-3)GalNAc
# How it was run: as §1
# GalNAc(b1-3)GlcNAc = target: GalNAc(b1-3)GlcNAc
# How it was run: as §1
# GalNAc(b1-4)Gal(b1-4)Glc = target: GalNAc(b1-4)Gal(b1-4)Glc
# How it was run: as §1
# GalNAc(b1-4)GlcNAc = target: GalNAc(b1-4)GlcNAc
# How it was run: as §1
binder,measurement,setting,value
B1,glycan array binding signal (z-score),[1],-0.315
same,glycan array binding signal (z-score),[2],0.222
same,glycan array binding signal (z-score),[3],0.131
same,glycan array binding signal (z-score),Gal(b1-4)GlcNAc6P,-0.091
same,glycan array binding signal (z-score),Gal(b1-6)Gal,-0.531
same,glycan array binding signal (z-score),Gal3S(b1-3)GalNAc,-1.02
same,glycan array binding signal (z-score),Gal3S(b1-3)GlcNAc,-0.14
same,glycan array binding signal (z-score),[4],0.083
same,glycan array binding signal (z-score),Gal3S(b1-4)Glc,-0.196
same,glycan array binding signal (z-score),Gal3S(b1-4)Glc6S,-0.046
same,glycan array binding signal (z-score),Gal3S(b1-4)GlcNAc,-0.111
same,glycan array binding signal (z-score),[5],1.05
same,glycan array binding signal (z-score),[6],-0.085
same,glycan array binding signal (z-score),[7],0.239
same,glycan array binding signal (z-score),Gal3S4S(b1-4)GlcNAc,-0.718
same,glycan array binding signal (z-score),Gal3S6S(b1-4)GlcNAc,0.764
same,glycan array binding signal (z-score),Gal3S6S(b1-4)GlcNAc6S,1.32
same,glycan array binding signal (z-score),Gal4S(b1-4)GlcNAc,-0.866
same,glycan array binding signal (z-score),Gal4S6S(b1-4)GlcNAc,-0.631
same,glycan array binding signal (z-score),Gal6P(b1-4)GlcNAc,0.04
same,glycan array binding signal (z-score),Gal6S(b1-3)GlcNAc,-0.165
same,glycan array binding signal (z-score),Gal6S(b1-3)GlcNAc6S,0.176
same,glycan array binding signal (z-score),Gal6S(b1-4)Glc,-0.106
same,glycan array binding signal (z-score),Gal6S(b1-4)Glc6S,-0.419
same,glycan array binding signal (z-score),Gal6S(b1-4)GlcNAc,0.041
same,glycan array binding signal (z-score),Gal6S(b1-4)GlcNAc6S,0.069
same,glycan array binding signal (z-score),GalNAc(a1-3)Gal,-0.64
same,glycan array binding signal (z-score),GalNAc(a1-3)GalNAc,0.209
same,glycan array binding signal (z-score),[8],-0.395
same,glycan array binding signal (z-score),[9],-0.333
same,glycan array binding signal (z-score),GalNAc(b1-3)Gal,0.566
same,glycan array binding signal (z-score),[10],-0.93
same,glycan array binding signal (z-score),[11],-0.048
same,glycan array binding signal (z-score),[12],-0.564
same,glycan array binding signal (z-score),GalNAc(b1-3)GalNAc,-0.304
same,glycan array binding signal (z-score),GalNAc(b1-3)GlcNAc,-0.667
same,glycan array binding signal (z-score),GalNAc(b1-4)Gal(b1-4)Glc,0.328
same,glycan array binding signal (z-score),GalNAc(b1-4)GlcNAc,-0.391

# An excerpt of these results, bar-delimited:
binder | measurement | setting | value
B1 | glycan array binding signal (z-score) | [9] | -0.333
same | glycan array binding signal (z-score) | GalNAc(b1-3)Gal | 0.566

# Source: the supplement of paper PMC8728848
